Measurements reported in PubChem BioAssay AID1508588 (Peter MacCallum Cancer Centre, 2020)

Screen: 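Which gene losses make BRAF-mutant melanoma cells more responsive to vemurafenib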 (primary screen)
System: human WM266.4 melanoma cells (BRAF V600 mutant)
Knock-down reagent: siRNA pool against human genes, 40 nM
Time to read-out: 96 h from transfection to read-out
Challenge: vemurafenib 300 nM (about IC25), added 48 h after transfection, for 48 h; comparison arm got DMSO vehicle only
Detection: 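Cell gain (DAPI nuclei at end minus before drug, mean of two replicates) and medium lactate by absorbance per cell, both as ratio to non-targeting siRNA, also grouped into fold-change classes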
Scale: cell gain with vemurafenib: higher = more cell gain than with non-targeting siRNA; lactate per cell with vemurafenib: higher = more lactate made per cell
Rule for the call: 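a knock-down counts as enhancing when its fold-change classes with vehicle and with vemurafenib, taken together, show a stronger drug effect on cell gain or lactate per cell; exact class pairs not stated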
Meaning of the calls: active = enhances vemurafenib effect; inactive = no enhancement seen
The whole screen tested about 18,000 reagents; below is an unselected part. Of all reagents, 790 (4.4%) are marked active. 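Calls rest on a combination of fold-change classes in drug and vehicle arms, not all shown here.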 A number with no mark means an inactive call.

gene symbol | cell gain with vemurafenib | lactate per cell with vemurafenib
ST6GALNAC1 | 0.61 | 0.62
TMT1B | 0.59 | 1.38
PHACTR3 | 0.63 (active) | 0.36
SLC2A8 | 0.55 | 2.15
GABPB2 | 0.2 | 0.65
LMAN2L | 0.85 | 1.21
NT5DC2 | 0.7 | 1.43
DLX5 | 1.22 | 0.86
GCNT3 | 1.06 | 1.21
B4GAT1 | 0.59 | 1.2
NCF4 | 0.48 | 1.04
PTMS | 0.49 | 1.07
DPYSL5 | 0.78 | 0.89
ZNF789 | 0.53 | 0.26
KDELR1 | 0.43 | 0.6
SPINK13 | 0.7 | 0.52
LYPD4 | 0.81 | 0.68
SULT1B1 | 0.4 | 1.29
LCE4A | 0.39 (active) | 0.43
CABP2 | 1.12 | 1.15
WDR45B | 1.04 | 0.72
GPNMB | 0.77 | 0.92
QRICH1 | 0.4 | 1.56
PDGFA | 0.99 | 1.06
CHIT1 | 0.32 | 1.71
BBOX1 | 0.58 | 0.98
USP49 | 0.29 | 2.37
HLA-C | 0.82 | 0.36
OR4X2 | 0.64 | 1.36
OR1Q1 | 1.35 | 0.55
INTS7 | 0.31 | 1.38
MSANTD1 | 0.86 | 1.05
PMM2 | 0.94 | 1.27
VKORC1L1 | 0.11 | 0.8
CEACAM1 | 0.74 | 0.86
AQP3 | 0.27 | 0.92
OR4B1 | 0.81 | 0.72
PPP1R16A | 0.72 | 1.5
GKN1 | 0.46 | 1.09
LAG3 | 0.68 | 1.44
CEMP1 | 0.48 | 1.16
ZBED8L | 0.51 | 0.56
KDM4D | 0.14 | 1.3
EIF3K | 0.17 | 1.07
LSM5 | 0.29 | 1.61
ATG4D | 0.3 | 1.3
MKS1 | -0.25 | 2.84
LHX9 | 0.46 | 0.9
RAF1 | 0.56 (active) | 0.64
ERF | 0.56 | 0.9
PCK1 | 0.18 | 1.29
SPESP1 | 0.91 | 0.68
CIRBP-AS1 | 0.66 | 0.95
MUCL1 | 0.6 | 1.52
HGH1 | 0.11 | 2.21
TFF1 | 0.28 | 2.02
TAGLN3 | 0.53 | 1.58
RPL31 | -0.09 | 4.79
COL28A1 | 0.69 | 0.68
SULT1E1 | 0.48 | 0.57
KIF19 | -0.02 | 0.84
TXNL4B | 0.71 | 1.18
TET2 | 1.3 | 0.62
LCORL | 0.39 | 1.51
CPA4 | 0.68 | 0.9
PSMB7 | 0.1 | 2.46
MAOB | 0.3 | 1.8
SAXO2 | 0.77 | 1.09
CRLF1 | 0.21 (active) | 0.35
ZNF214 | 0.89 | 0.97
HSDL1 | 0.45 | 1.7
NCMAP | 0.56 | 1.57
SREBF2 | 0.44 | 0.9
APBB3 | 1.1 | 1
FBXL18 | 1.23 | 0.86
B4GALNT2 | 0.33 | 1.62
ADAMTS8 | 0.75 | 0.74
GIMAP4 | 0.17 | 1.34
CLEC4E | 0.78 | 0.56
ARHGAP8 | 1 | 1.33
FBLN7 | 0.5 | 1.17
PADI1 | 0.9 | 0.58
FAM180A | 0.36 | 1.92
PRR30 | 0.41 (active) | 0.3

An excerpt taken from the entries so far, as a working copy:
gene symbol | cell gain with vemurafenib | lactate per cell with vemurafenib
RPL31 | -0.09 | 4.79
COL28A1 | 0.69 | 0.68
SULT1E1 | 0.48 | 0.57
KIF19 | -0.02 | 0.84
TXNL4B | 0.71 | 1.18
